These results are taken from article PMC10455450.

By UniProt entry, the sequences of proteins in these tests, tags left out.
UniProt Q9NZJ0: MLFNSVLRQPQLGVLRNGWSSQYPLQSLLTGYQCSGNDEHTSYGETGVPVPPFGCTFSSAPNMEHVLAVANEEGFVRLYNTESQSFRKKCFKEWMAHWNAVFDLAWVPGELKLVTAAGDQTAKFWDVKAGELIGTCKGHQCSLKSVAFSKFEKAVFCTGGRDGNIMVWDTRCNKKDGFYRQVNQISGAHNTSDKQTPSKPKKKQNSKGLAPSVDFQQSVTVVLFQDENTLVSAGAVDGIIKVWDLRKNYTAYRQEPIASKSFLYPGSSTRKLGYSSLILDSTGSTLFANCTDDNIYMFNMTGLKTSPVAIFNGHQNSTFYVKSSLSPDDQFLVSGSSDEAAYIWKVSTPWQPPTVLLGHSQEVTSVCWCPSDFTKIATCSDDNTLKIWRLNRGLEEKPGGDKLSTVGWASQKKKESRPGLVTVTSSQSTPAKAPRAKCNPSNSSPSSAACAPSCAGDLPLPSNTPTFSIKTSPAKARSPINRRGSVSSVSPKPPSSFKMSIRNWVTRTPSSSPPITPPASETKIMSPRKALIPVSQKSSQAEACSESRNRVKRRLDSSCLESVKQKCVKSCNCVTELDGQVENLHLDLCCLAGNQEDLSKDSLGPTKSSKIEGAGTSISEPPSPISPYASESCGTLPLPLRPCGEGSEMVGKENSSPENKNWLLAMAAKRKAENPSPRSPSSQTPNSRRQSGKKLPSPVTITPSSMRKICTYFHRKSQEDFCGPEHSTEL

No constants are given. Whether binding was seen depends on the method and setting. In cells and extracts the contact can be indirect. Some entries that bind do so weakly or less than the wild type. For some assays here: Tags and fused reporters may be left off the sequences shown.

Test [1] has as its target T1, VMP1–FLAG (pLenti–hVMP1–FLAG) (human) (UniProt Q96GC9).
T1 sequence: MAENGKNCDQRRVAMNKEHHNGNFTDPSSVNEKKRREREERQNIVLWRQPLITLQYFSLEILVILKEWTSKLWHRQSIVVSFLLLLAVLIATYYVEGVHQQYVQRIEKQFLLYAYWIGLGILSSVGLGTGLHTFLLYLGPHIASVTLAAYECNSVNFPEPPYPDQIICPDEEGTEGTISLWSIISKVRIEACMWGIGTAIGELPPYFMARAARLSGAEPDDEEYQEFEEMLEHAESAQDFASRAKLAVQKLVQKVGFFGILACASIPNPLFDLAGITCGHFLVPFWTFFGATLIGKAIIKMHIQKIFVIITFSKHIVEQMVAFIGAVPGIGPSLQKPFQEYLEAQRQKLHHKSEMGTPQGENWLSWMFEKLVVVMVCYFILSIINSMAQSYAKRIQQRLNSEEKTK
Nature of the test: co-IP; HEK293T lysates; Anti-FLAG M2 magnetic beads, 2 h at 4 °C; washed with lysis buffer; eluted with Laemmli buffer; immunoblot. For orientation: A western blot detects proteins with antibodies after separation by electrophoresis.

For test [2], the target named is FLAG–HA–Cdt2 (cell division cycle protein cdt2, from pcDNA3–2xFLAG–2xHA–Cdt2) (human) (UniProt Q9NZJ0). Described as above.

Consider “Myc–Cdt2 (pcDNA3–Myc–Cdt2) (from UniProt Q9NZJ0 1-730)”, for which the binding entry in test [1] is “binds”.

B1: Vacuole Membrane Protein 1 (VMP1), endogenous (protein, UniProt Q96GC9 1-406)
chain: MAENGKNCDQRRVAMNKEHHNGNFTDPSSVNEKKRREREERQNIVLWRQPLITLQYFSLEILVILKEWTSKLWHRQSIVVSFLLLLAVLIATYYVEGVHQQYVQRIEKQFLLYAYWIGLGILSSVGLGTGLHTFLLYLGPHIASVTLAAYECNSVNFPEPPYPDQIICPDEEGTEGTISLWSIISKVRIEACMWGIGTAIGELPPYFMARAARLSGAEPDDEEYQEFEEMLEHAESAQDFASRAKLAVQKLVQKVGFFGILACASIPNPLFDLAGITCGHFLVPFWTFFGATLIGKAIIKMHIQKIFVIITFSKHIVEQMVAFIGAVPGIGPSLQKPFQEYLEAQRQKLHHKSEMGTPQGENWLSWMFEKLVVVMVCYFILSIINSMAQSYAKRIQQRLNSEEKTK
Take B1: the binding entry in test [2] is “binds”.
